In test [1] the target is T1, MAB-10 protein fused to the GAL4 DNA-binding domain (C. elegans) (UniProt Q22002).
T1 sequence: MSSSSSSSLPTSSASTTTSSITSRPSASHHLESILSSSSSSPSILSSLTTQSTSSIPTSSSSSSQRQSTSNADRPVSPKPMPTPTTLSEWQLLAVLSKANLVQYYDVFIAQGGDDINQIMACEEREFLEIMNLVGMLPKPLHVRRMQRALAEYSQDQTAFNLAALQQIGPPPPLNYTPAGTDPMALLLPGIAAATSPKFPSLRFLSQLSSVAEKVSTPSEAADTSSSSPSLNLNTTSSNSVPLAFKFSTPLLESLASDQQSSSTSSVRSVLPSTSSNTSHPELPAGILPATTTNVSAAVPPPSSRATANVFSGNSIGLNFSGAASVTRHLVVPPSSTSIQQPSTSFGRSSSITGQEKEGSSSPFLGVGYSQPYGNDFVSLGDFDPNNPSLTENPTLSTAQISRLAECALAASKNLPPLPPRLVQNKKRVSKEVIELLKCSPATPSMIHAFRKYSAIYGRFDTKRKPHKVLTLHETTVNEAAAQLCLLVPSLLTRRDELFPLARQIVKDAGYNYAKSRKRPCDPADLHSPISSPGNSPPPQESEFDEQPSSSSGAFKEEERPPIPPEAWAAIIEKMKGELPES
Nature of the test: two-hybrid; yeast Y2HGold, pGADT7 and pGBKT7 fusions; spot assay on SD/-Leu/-Trp/-His/-Ade plates with 10 mM 3-AT, 2 days at 30 °C.

The target of test [2] is T2, MAB-10::spGFPC (C. elegans) (UniProt Q22002).
T2 sequence: T1 sequence
Nature of the test: split reporter; split GFP: spGFPN on DDX-23 and spGFPC on MAB-10, both expressed from the seam cell promoter P_(ceh-16) in living C. elegans; confocal imaging.

Results are given in words; binding and its absence hold for the method and conditions named. Binding can be weak; no strength is given. Tags and fused reporters may be left off the sequences shown. For some assays here: In cells and extracts the contact can be indirect.

Take “DDX-23 protein fused to the GAL4 activation domain (from UniProt Q95QN2)”: the binding result in test [1] was “binds”.

As for DDX-23::spGFPN (C. elegans), in test [2], the binding entry is on record as “binds”.

Source of the values: article PMC10584935.
